The name of at least one read-out is uncertain.
Experiments:
Assay type in all cases: biochemical
[1] = Kinetic parameters on ABTS; conditions: 25 mM succinate buffer, pH 4.5, 25° C.
[2] = Kinetic parameters on syringaldazin; conditions: 40 mM MES buffer, pH 6 and 25 mM succinate buffer, 25° C.
[3] = Kinetic parameters on DMP; conditions: 40 mM MES buffer, pH 6 and 25 mM succinate buffer, 25° C.

B1: TaLcc1: Recombinant Thielavia arenaria ALKO4197 laccase 1 (SEQ ID NO: 12) produced in Trichoderma reesei strains RF5597/RF5598 (protein)
chain: MKSWAAAVALMVGILSPHAAAAPPANPVQRDMLQVLEARQSGPTCNTPSNRACWTNGFDINTDYEVSTPNTGRTVAYQLTLTEKENWIGPDGVLKNVVMLVNDKIIGPTIRANWGDNIEVTVINNLKTNGTSMHWHGLRQLGNVFNDGANGVTECPIPPKGGRKTYKFRATQYGTSWYHSHFSAQYGNGVVGTIQIDGPASLPYDIDLGVFPLMDYYYRSADELVHFTQSNGAPPSDNVLFNGTARHPETGAGQWYNVTLTPGKRHRLRIINTSTDNHFQVSLVGHNMTVIATDMVPVNAFTVSSLFLAVGQRYDVTIDANSPVGNYWFNVTFGDGLCGSSNNKFPAAIFRYQGAPATLPTDQGLPVPNHMCLDNLNLTPVVTRSAPVNNFVKRPSNTLGVTLDIGGTPLFVWKVNGSAINVDWGKPILDYVMSGNTSYPVSDNIVQVDAVDQWTYWLIENDPTNPIVSLPHPMHLHGHDFLVLGRSPDELPSAGVRHIFDPAKDLPRLKGNNPVRRDVTMLPAGGWLLLAFKTDNPGAWLFHCHIAWHVSGGLSVDFLERPNDLRTQLNSNAKRADRDDFNRVCREWNAYWPTNPFPKIDSGLRHRFVEESEWMVR
modifications: Thielavia arenaria ALKO4197; (1)..(617) Deduced amino acid sequence of Thielavia arenaria ALKO4197 laccase 1 (Ta Lcc1)
kcat/Km, ABTS [1]: 918000 M⁻¹ s⁻¹ | kcat/Km, Syringaldazin [2]: 7.52e+06 M⁻¹ s⁻¹ | kcat/Km, DMP [3]: 3.95e+06 M⁻¹ s⁻¹

B2: MaL: well-known laccase from Melanocarpus albomyces (protein, UniProt Q70KY3 51-609, looked up)
Laccase-1: EPTCNTPSNRACWSDGFDINTDYEVSTPDTGVTQSYVFNLTEVDNWMGPDGVVKEKVMLINGNIMGPNIVANWGDTVEVTVINNLVTNGTSIHWHGIHQKDTNLHDGANGVTECPIPPKGGQRTYRWRARQYGTSWYHSHFSAQYGNGVVGTIQINGPASLPYDIDLGVFPITDYYYRAADDLVHFTQNNAPPFSDNVLINGTAVNPNTGEGQYANVTLTPGKRHRLRILNTSTENHFQVSLVNHTMTVIAADMVPVNAMTVDSLFLAVGQRYDVVIDASRAPDNYWFNVTFGGQAACGGSLNPHPAAIFHYAGAPGGLPTDEGTPPVDHQCLDTLDVRPVVPRSVPVNSFVKRPDNTLPVALDLTGTPLFVWKVNGSDINVDWGKPIIDYILTGNTSYPVSDNIVQVDAVDQWTYWLIENDPEGPFSLPHPMHLHGHDFLVLGRSPDVPAASQQRFVFDPAVDLARLNGDNPPRRDTTMLPAGGWLLLAFRTDNPGAWLFHCHIAWHVSGGLSVDFLERPADLRQRISQEDEDDFNRVCDEWRAYWPTNPYPKIDSGL
kcat/Km, ABTS [1]: 300000 M⁻¹ s⁻¹ | kcat/Km, Syringaldazin [2]: 6e+07 M⁻¹ s⁻¹ | kcat/Km, DMP [3]: 1.35e+07 M⁻¹ s⁻¹
